Our source for the binding values is paper PMC5840776.

Protein sequences, listed by entry. Tags and fused reporters are not part of them.
UniProt Q9NQU5: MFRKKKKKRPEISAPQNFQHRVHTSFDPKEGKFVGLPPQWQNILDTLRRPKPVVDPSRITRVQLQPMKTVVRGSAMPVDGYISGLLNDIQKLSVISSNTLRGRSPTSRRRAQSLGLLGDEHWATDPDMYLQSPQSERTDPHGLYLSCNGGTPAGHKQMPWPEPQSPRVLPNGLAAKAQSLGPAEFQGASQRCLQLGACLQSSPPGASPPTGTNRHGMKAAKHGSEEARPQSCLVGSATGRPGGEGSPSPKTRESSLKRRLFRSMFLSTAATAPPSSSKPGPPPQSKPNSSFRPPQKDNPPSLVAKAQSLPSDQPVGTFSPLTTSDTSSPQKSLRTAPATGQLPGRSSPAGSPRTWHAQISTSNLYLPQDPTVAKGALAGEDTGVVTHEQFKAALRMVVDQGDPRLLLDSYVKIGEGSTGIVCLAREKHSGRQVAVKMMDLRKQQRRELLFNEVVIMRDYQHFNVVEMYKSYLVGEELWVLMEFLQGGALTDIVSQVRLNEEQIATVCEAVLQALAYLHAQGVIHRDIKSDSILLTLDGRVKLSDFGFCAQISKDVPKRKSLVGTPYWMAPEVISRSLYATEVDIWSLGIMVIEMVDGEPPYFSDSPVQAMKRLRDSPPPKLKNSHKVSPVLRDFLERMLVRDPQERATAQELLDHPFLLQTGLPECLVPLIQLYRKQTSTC
UniProt Q13177: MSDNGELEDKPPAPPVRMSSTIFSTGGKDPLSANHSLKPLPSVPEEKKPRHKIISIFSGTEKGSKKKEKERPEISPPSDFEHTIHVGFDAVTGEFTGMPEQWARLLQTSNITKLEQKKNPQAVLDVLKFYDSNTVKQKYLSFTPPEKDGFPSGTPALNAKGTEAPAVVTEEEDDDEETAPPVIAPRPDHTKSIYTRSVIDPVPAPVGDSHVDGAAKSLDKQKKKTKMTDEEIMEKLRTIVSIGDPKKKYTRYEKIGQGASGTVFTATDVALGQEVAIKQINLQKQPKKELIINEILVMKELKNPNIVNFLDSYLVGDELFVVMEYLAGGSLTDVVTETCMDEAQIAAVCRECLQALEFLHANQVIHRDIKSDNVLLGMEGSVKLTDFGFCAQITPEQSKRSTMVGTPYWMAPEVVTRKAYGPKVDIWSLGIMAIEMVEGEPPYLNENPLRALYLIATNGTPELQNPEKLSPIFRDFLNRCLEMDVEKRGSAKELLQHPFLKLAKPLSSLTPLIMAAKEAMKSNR
UniProt Q13153: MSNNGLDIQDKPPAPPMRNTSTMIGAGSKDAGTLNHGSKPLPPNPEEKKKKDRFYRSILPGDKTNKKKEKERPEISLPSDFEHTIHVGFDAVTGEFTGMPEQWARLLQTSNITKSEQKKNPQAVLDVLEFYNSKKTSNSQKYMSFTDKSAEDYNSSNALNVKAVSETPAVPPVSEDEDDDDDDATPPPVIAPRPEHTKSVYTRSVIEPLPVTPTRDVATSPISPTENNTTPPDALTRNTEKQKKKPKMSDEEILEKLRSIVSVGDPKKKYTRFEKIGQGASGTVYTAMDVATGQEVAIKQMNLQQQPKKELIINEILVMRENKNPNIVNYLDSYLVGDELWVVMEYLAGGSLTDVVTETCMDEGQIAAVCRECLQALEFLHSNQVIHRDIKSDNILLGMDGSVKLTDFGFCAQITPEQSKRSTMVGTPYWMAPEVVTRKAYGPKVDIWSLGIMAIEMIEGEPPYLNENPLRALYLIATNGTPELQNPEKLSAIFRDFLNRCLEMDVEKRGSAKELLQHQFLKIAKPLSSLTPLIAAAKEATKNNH
UniProt Q9P286: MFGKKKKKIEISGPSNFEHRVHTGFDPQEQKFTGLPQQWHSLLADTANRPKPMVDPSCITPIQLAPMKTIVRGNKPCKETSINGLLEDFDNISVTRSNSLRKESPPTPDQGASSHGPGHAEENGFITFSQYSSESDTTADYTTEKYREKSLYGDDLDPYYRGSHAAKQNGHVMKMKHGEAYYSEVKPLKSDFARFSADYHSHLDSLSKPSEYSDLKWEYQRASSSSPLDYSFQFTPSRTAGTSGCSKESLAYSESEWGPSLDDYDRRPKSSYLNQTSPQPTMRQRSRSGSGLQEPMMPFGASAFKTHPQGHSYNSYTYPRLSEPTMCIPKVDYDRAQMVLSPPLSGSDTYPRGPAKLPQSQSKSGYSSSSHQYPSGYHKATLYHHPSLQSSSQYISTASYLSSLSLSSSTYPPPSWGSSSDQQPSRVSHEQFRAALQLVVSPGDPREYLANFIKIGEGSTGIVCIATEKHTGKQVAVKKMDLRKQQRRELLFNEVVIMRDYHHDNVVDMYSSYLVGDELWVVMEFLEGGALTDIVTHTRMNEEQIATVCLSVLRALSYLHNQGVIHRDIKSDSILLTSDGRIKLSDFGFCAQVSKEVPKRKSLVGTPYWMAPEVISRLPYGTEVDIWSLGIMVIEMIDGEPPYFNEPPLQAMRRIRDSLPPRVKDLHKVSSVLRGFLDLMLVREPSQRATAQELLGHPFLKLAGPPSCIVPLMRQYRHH

No constants are given. Whether binding was seen depends on the method and setting. In cells and extracts the contact can be indirect. Some binding calls cover weakened binding; strength is not graded here. Sequences can lack the tags named with a protein.

In one assay the target is T1, GFP-RhoH (UniProt Q15669).
T1 sequence: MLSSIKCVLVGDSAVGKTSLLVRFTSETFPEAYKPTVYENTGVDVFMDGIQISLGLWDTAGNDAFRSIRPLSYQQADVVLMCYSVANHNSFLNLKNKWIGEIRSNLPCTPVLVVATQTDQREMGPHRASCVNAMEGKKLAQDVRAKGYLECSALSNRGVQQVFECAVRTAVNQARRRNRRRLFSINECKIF
The assay is described as follows: co-IP; COS7 cells transfected with GFP-RhoH and myc epitope-tagged PAKs; after 24 h lysates incubated with GFP-Trap beads (GFP IP), western blot.

In the next assay the target is T2, HA-RhoH (UniProt Q15669).
T2 sequence: T1 sequence
The experiment in a line: co-IP; COS7 cells transfected with HA-RhoH, GFP-Rac1 and Myc-PAK2; text: RhoH immunoprecipitates; legend: GFP-Trap beads (GFP IP); western blot. (Immunoblotting shows a protein as a band on a membrane.)

Regarding “myc epitope-tagged PAK6 (from UniProt Q9NQU5 1-681) (enzyme)”, the binding entry with GFP-RhoH is “binds”.
On to “myc epitope-tagged PAK4 (from UniProt O96013-1 1-591) (enzyme)”, for which the binding result with GFP-RhoH was “binds”.
Take “Myc-PAK2 (from UniProt Q13177 1-524) (enzyme)”: the binding result with GFP-RhoH and with HA-RhoH was “binds” each time.
With “myc epitope-tagged PAK1 (from UniProt Q13153 1-545) (enzyme)”, the binding result with GFP-RhoH is given as “binds”.
Same read-out and setting: the same measure for “myc epitope-tagged PAK5 (from UniProt Q9P286 1-719) (enzyme)”: “binds”.
